Data taken from paper PMC7520122.
No constants are given. Whether binding was seen depends on the method and setting. In cells and extracts the contact can be indirect. Some entries that bind do so weakly or less than the wild type. Sequences can lack the tags named with a protein.

Key:
[1] = target: T1, GST-PAP1 (PRODUCTION OF ANTHOCYANIN PIGMENT 1) (Arabidopsis thaliana) (UniProt Q9FE25); assay: pull-down; UMEPPI: 500 µL crude soluble fraction of the GL1 Hishot complex with 100 µL purified GST, GST-GL3 or GST-PAP1 (36.6 µM) and glutathione sepharose 4B, 4°C overnight, washed three times with PBS; co-precipitated GL1 detected through its mRNA by semi-qRT-PCR and qRT-PCR; only the target purified
T1 sequence: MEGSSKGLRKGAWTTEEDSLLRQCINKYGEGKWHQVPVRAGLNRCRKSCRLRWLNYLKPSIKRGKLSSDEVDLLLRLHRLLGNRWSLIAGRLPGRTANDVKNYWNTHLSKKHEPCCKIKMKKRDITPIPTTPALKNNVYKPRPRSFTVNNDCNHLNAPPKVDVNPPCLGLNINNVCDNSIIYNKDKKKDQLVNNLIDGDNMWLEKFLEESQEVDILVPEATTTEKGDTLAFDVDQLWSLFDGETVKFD

[2] = target: T2, GST-GL3 (GLABRA3) (Arabidopsis thaliana) (UniProt Q9FN69); assay: as above
T2 sequence: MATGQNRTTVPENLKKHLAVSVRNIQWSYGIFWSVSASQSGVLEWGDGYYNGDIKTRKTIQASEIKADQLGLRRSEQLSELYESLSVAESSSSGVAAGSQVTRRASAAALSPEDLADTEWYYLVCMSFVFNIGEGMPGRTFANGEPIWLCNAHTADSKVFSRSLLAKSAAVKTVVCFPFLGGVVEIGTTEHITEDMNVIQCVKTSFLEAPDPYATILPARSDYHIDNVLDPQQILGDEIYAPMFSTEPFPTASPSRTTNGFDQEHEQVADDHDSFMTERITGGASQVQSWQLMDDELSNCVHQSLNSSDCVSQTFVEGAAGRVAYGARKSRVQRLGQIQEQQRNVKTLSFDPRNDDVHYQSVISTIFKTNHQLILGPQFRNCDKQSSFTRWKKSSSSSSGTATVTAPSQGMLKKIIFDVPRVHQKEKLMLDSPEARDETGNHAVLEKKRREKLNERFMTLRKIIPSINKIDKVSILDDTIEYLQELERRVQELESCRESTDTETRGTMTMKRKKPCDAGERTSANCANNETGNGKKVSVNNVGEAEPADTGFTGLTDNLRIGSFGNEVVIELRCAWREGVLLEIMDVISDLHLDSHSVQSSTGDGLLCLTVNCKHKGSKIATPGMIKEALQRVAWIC

- binding [1]: binds
- binding [2]: binds
B1: GL1 Hishot complex (histidine-tagged GLABROUS1 associated with its own shot47-tagged mRNA) (protein, UniProt P27900 1-228)
chain: MRIRRRDEKENQEYKKGLWTVEEDNILMDYVLNHGTGQWNRIVRKTGLKRCGKSCRLRWMNYLSPNVNKGNFTEQEEDLIIRLHKLLGNRWSLIAKRVPGRTDNQVKNYWNTHLSKKLVGDYSSAVKTTGEDDDSPPSLFITAATPSSCHHQQENIYENIAKSFNGVVSASYEDKPKQELAQKDVLMATTNDPSHYYGNNALWVHDDDFELSSLVMMNFASGDVEYCL
